Data on 6 molecules can be found in paper PMC6656429.

By UniProt entry, the sequences of proteins in these tests, tags left out. Where a name states a change or a piece, a line headed by the entry shows the natural chain unless it says otherwise.
UniProt O14777: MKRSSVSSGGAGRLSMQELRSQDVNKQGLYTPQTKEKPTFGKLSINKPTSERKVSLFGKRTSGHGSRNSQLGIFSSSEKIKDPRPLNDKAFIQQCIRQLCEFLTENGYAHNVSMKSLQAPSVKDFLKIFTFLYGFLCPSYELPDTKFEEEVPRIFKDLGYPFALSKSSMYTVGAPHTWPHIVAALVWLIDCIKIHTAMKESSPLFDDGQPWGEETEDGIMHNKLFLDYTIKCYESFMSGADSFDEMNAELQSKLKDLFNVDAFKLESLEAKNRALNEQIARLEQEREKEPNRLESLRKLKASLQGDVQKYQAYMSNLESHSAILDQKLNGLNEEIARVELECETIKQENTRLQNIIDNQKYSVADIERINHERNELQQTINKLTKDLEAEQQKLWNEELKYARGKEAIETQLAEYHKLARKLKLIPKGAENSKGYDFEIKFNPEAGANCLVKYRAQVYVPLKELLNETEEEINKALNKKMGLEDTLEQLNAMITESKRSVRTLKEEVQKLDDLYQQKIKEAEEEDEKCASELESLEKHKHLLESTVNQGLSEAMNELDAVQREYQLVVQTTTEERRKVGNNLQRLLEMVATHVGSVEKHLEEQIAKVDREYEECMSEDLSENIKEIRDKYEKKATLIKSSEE
UniProt Q9BZD4: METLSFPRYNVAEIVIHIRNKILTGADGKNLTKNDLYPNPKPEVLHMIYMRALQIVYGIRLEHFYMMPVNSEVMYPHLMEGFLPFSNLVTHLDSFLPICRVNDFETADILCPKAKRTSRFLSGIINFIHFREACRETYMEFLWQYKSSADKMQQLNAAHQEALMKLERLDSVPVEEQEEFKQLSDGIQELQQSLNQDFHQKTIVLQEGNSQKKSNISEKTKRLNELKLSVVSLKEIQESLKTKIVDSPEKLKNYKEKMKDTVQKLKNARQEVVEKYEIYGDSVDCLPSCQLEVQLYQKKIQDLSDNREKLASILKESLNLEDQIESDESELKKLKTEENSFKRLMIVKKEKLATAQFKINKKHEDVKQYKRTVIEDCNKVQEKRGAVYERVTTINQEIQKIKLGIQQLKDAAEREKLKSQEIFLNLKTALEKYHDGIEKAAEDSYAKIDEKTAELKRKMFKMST
UniProt Q8NBT2: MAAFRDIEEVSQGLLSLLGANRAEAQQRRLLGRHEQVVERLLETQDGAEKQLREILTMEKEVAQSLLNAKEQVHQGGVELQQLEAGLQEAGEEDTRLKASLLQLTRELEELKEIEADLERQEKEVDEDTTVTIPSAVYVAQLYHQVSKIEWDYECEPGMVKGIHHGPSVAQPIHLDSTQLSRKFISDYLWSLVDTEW
UniProt Q9HBM1: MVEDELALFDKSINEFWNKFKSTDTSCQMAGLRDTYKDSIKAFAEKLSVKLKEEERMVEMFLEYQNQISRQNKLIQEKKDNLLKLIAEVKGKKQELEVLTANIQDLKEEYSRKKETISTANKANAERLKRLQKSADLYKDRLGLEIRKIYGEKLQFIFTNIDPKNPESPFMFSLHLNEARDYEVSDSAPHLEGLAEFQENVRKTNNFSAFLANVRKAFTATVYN
UniProt O43683: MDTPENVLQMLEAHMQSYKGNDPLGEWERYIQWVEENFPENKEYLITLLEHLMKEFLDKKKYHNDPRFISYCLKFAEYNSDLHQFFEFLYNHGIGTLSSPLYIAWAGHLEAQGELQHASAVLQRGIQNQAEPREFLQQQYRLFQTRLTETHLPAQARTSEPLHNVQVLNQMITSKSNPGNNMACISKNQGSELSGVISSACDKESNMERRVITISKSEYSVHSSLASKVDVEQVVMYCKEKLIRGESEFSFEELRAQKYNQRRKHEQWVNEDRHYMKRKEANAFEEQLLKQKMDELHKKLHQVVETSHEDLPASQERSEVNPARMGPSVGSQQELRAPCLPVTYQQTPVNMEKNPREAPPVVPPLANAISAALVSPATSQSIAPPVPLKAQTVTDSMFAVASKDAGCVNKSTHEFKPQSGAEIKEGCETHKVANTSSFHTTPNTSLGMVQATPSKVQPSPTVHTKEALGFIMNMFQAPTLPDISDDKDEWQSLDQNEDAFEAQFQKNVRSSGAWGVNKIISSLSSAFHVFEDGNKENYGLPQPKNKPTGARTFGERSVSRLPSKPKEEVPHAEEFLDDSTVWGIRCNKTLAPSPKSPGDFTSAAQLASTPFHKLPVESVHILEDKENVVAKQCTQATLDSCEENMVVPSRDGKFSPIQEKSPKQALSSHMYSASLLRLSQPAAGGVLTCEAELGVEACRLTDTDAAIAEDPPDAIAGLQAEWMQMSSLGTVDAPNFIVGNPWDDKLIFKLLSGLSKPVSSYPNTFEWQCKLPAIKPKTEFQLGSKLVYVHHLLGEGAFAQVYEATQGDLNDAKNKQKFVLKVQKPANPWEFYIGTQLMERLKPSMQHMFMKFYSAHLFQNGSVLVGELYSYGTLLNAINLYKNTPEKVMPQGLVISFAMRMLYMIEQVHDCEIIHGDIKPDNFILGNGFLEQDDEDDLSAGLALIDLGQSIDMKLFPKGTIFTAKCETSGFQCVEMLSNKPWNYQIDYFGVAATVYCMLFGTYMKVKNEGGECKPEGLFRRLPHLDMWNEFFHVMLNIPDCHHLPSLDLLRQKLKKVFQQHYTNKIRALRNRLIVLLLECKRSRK
UniProt Q9H081: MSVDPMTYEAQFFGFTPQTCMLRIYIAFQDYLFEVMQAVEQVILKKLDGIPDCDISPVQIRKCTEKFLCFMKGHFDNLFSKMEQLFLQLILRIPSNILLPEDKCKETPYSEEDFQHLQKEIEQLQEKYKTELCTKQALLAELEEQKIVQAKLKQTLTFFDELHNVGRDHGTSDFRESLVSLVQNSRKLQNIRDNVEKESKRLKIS

No constants are given. Whether binding was seen depends on the method and setting. For part of these data: Binding seen in cells or lysates may run through a third protein. Some entries that bind do so weakly or less than the wild type. For part of these data: Where a sequence is shown, tags or fusion partners need not be part of it.

For assay [1], the target named is GFP-NDC80C^WT (recombinant GFP-labeled NDC80 complex of NDC80, NUF2, SPC24 and SPC25) (human) (UniProt O14777+Q9BZD4+Q8NBT2+Q9HBM1). Description: co-IP; GFP-Trap beads on 4 mg protein extract of mitotic HeLa cells (nocodazole 16 h, shake off) previously electroporated with the recombinant GFP protein; 3 h at 4°C; lysis buffer 150 mM KCl, 75 mM Hepes pH 7.5, 1.5 mM EGTA, 1.5 mM MgCl2, 10% glycerol, 0.075% NP-40; western blot; only the target …. (In general: A western blot detects proteins with antibodies after separation by electrophoresis.)

Assay [2] concerns the target T1, DSN1-His (subunit of recombinant CFP-MIS12C) (human) (UniProt Q9H410).
T1 sequence: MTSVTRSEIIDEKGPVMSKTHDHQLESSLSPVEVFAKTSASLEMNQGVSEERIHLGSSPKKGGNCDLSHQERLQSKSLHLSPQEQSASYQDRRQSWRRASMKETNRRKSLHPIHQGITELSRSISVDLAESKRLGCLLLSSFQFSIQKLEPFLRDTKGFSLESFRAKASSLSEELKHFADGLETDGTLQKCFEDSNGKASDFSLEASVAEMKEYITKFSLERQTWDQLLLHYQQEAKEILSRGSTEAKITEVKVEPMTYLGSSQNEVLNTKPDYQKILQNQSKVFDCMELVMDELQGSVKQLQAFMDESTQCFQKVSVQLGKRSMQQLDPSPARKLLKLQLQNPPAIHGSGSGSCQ
Description: co-purification (His affinity, anion exchange, size exclusion); four MIS12C subunits co-expressed in Tnao38 insect cells; HisTrap FF with 300 mM imidazole step elution, Resource Q with NaCl gradient, Superdex 200 10/300 in 20 mM Tris-HCl pH 8.0, 0.15 M NaCl, 1 mM TCEP. A general note: SEC sorts molecules by how far they enter the pores of the column.

The target in assay [3] is SPC25 with C-terminal GFP and His6 tag (subunit of recombinant NDC80C^9A-GFP) (human) (UniProt Q9HBM1). The assay is described as follows: co-purification (His affinity, anion exchange, size exclusion); four NDC80C subunits co-expressed in Tnao38 insect cells; elution with 300 mM imidazole, Resource Q with 25-400 mM NaCl gradient, Superose 6 16/70 in 50 mM HEPES pH 8, 250 mM NaCl, 5% glycerol, 2 mM TCEP.

Regarding “BUB1 (endogenous) (from UniProt O43683 1-1085)”, the binding result in assay [1] is on record as “binds”. For the molecule “MIS12 (endogenous) (from UniProt Q9H081 1-205)”, the binding result in assay [1] was “binds”. “MIS12 (subunit of recombinant CFP-MIS12C) (from UniProt Q9H081 1-205)”: the binding result in assay [2] is reported as “binds”.

“NUF2 (subunit of recombinant NDC80C^9A-GFP) (from UniProt Q9BZD4 1-464)”: the binding result in assay [3] is “binds”. For “SPC24 (subunit of recombinant NDC80C^9A-GFP) (from UniProt Q8NBT2 1-197)”, the binding entry in assay [3] was “binds”.

B1: CFP-PMF1 (subunit of recombinant CFP-MIS12C) (protein, UniProt Q6P1K2 1-205)
chain: MAEASSANLGSGCEEKRHEGSSSESVPPGTTISRVKLLDTMVDTFLQKLVAAGSYQRFTDCYKCFYQLQPAMTQQIYDKFIAQLQTSIREEISDIKEEGNLEAVLNALDKIVEEGKVRKEPAWRPSGIPEKDLHSVMAPYFLQQRDTLRRHVQKQEAENQQLADAVLAGRRQVEELQLQVQAQQQAWQALHREQRELVAVLREPE
Take B1: the binding result in assay [2] is “binds”.
